These are literature values, as cited in PMC6538516 (Journal of Veterinary Science, 2019).

For the data set, the system named is CYP1A. Conditions: hepatic microsomes from Beagles; ref 13 (Regmi et al.); cited from earlier work.

With `O=C(O)c1cn(C2CC2)c2cc(N3CCNCC3)c(F)cc2c1=O` [ciprofloxacin], the CYP1A-inhibiting effect result is “inhibited CYP1A in a non-competitive manner”.
